The whole screen tested about 53,000 sequences, of which about 3,700 (7%) were called active.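 How the source made its calls: active means gene knockdowns whose robust z-score for IL-1 alpha signal is at least 2 or at most -2, so actives lie on both sides; inactive means the rest.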 This is one part of the list.

Results on 68 sequences are retold here after PubChem BioAssay AID1508600 (Functional Genomics Laboratory (NCATS/FGL), 2020).

This experiment in a line: Components of the Cytosolic LPS Sensing Pathway: Gene Identification via Genome-wide siRNA Screen.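 Further: robust z of the log signal after scaling to non-targeting control siRNA wells of the plate.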 The following applies: RAW264.7 macrophages, IL-1a HTRF, actives lie on both sides, screened at 100 nM (by protocol), cells primed 5 h with Pam3CSK4 first. In a few lines:
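Knockdown: 100 nM siRNA, 48h, RAW264.7. Stimulation: Pam3CSK4 5 h, then LipidA via TransIT-TKO 24 h. Output: supernatant IL-1a HTRF, negative-control-normalized, log robust z-score; viability by CellTiter-Glo.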
A general note: Time-resolved FRET reads energy transfer from a long-lived donor to a nearby acceptor.
Take GCACUUCAACCCUAACAUUTT against Acp2: the z-score was inactive: -0.0239.

Turning to GCCAUGUUCAAUAUUAGGATT against Rps3a1, the z-score is inactive: -0.311.

For the sequence GGGUGAGGAGACAGAAUUCTT against Dnajc5, the z-score is inactive: 1.19.

With “GCAGCUAAGGUAUCUUCAUTT against 9930021J03Rik”, the z-score is inactive: 1.43.

For GGUCUCCUACUUCCACUGCTT against Sppl3, the z-score was inactive: 0.33.

With GGUUUUUGCCAGUAAUAACTT against B4galt4, the z-score was inactive: 0.0609.

As to GGUUUGAUAUCCAGGUGCATT against Sppl2b, the z-score is inactive: 0.373.

On to GGUGCAUGUCUUCAUCCACTT against Rnase12, for which the z-score is active: 3.04.

Consider CAAUCCUCAACGAUUACAUTT against Ncor1, for which the z-score is active: 2.05.

Turning to GGUGUUUUGUGAAUUGAAATT against Leprotl1, the z-score is inactive: -1.05.

As for GCUACUCAGUCAUUGAGCCTT against Tatdn2, the z-score was inactive: -1.85.

Take GGAUUAUUCAAGGACUUUGTT against Bmf: the z-score was inactive: 0.48.

Consider GGCAGUUAACACUUAAUGATT against Foxp2, for which the z-score was inactive: 0.609.

Take “GGCACCAGUCCUGUUAGAUTT against A330008L17Rik”: the z-score was inactive: -0.375.

For GCCUAUACACUUGGUAUUGTT against Ptges3, the z-score is inactive: -0.166.

For the sequence GCAACAUUGAUUCUAGGAUTT against Olfr1391, the z-score is inactive: -1.48.

Take GGACUAAGCCUGAAUGUGUTT against Zdhhc5: the z-score was inactive: -1.46.

Consider GGUGCCCUACAGUGAGAUATT against Rpl13, for which the z-score is inactive: 1.91.

As to CCUGAAAUCCUGUAGCUACTT against Pgap3, the z-score is inactive: 1.35.

In the case of GGAAAUCGAUAGUUUCUUCTT against Olfr1302, the z-score was inactive: -0.0687.

Turning to GCCUUGACCUGAUUUCUACTT against Tas2r131, the z-score was inactive: -0.525.

Turning to GGCACUUAAGUUUCAUAAGTT against Qars, the z-score was inactive: 0.466.

For GGUUUCGUAUAAAUUCUCUTT against Ank, the z-score was inactive: 1.53.

As for GGAACAAGCAAGUCAAACATT against Olfr770, the z-score is active: 2.24.

As for GGAUCUUACUAUCACCAGCTT against Foxf1, the z-score is inactive: 1.99.

Turning to GGCGGGUACAUAAGAAUCUTT against Tusc2, the z-score was inactive: 0.863.

On to GGAGUCUGUGGAUAGUGUATT against Creb1, for which the z-score was inactive: 0.232.

GCAAAAGGGAUUCCUCGAUTT against Zdhhc14: the z-score is inactive: -0.708.

As to GGAAGAAUUGAACCACAGGTT against Papolg, the z-score was inactive: -1.72.

Regarding CCCAAAAAAAUCGUACUGUTT against Rbx1, the z-score was inactive: 0.062.

As for GGUAAUCCUGACUUCGUGGTT against Asb17, the z-score is inactive: 0.915.

In the case of GGACAUUUCACAAGUCAAATT against Eloc, the z-score is inactive: 1.81.

As for GGAACUUGAGGUUUUCUGGTT against Spag17, the z-score is inactive: -1.89.

Turning to GCCAAUGUAACCUUCAAAATT against Lypla1, the z-score is inactive: 0.351.

For GGGACCCAAACAUUGAAGCTT against Fez1, the z-score is inactive: 0.547.

Regarding CCGAGUUUGGCUAUAAAGGTT against Tufm, the z-score is inactive: -0.316.

With GGAGCGAUGUAGUUGCUUGTT against Olig1, the z-score is inactive: 1.02.

GCAGUGUGUCCUAAAGCUCTT against Osbpl1a: the z-score was inactive: -1.23.

Consider GGAAUUGACCAAGACAUAUTT against Mep1b, for which the z-score is inactive: 0.101.

In the case of GGAGAGUGAAGAUUAAAUCTT against Golt1a, the z-score was inactive: -0.035.

For the sequence GGGUGCCAAACACCUCAGUTT against Igfbp2, the z-score was inactive: -0.563.

Regarding GGAGAAGGAGCAGAUUAAATT against Krt8, the z-score was active: 2.07.

Take CCUACUCUACAACAUGGAATT against Alox15: the z-score was inactive: 0.57.

Take GGAAUUUGCCAAUGACUUCTT against Cygb: the z-score is inactive: 1.06.

With GCCAAGUGCUACAACAUCCTT against Ifitm5, the z-score is inactive: -0.64.

As to GGUACUUCCUCAUUUACCUTT against Zdhhc4, the z-score was inactive: 0.541.

Regarding GCACAUUUUAGCCUAAUGGTT against Tpm3, the z-score was inactive: -0.785.

GGAAAACCUUUUCAGCUUCTT against Nsmf: the z-score was inactive: 0.4.

Regarding CCAAAAGUGGAGAGCGACATT against Cnrip1, the z-score was inactive: -1.32.

Consider GCAAAGAUAACAGUAUGUUTT against Polr2m, for which the z-score is inactive: -0.216.

GGCUAUUGUGCAGUUGAAGTT against Plec: the z-score was inactive: 0.119.

Consider GGCACUGAGAUCUGUAAUUTT against Wipi1, for which the z-score was inactive: 1.13.

As to GGCCGAAGCCCAGAAACAATT against Itih4, the z-score is inactive: -0.622.

Regarding CCGAUGCAUCUGCUUUAUUTT against Mfsd9, the z-score is inactive: 0.149.

On to GGGUUUCUUCCCUGAGCUATT against Nxf7, for which the z-score is inactive: -1.97.

Take GGAUUCCCUAUCCCAUACCTT against Araf: the z-score is inactive: 0.78.

For the sequence GCAGCGUAUGCUAAUAUAATT against Cln3, the z-score is inactive: 1.16.

Turning to GUGUCUCUGUAGUUGUUACTT against Olfr494, the z-score was inactive: -0.739.

As for GGUCAAGUCAUCAGAAAUGTT against Sdr42e1, the z-score was inactive: 0.472.

For the sequence GGCCAUUUAAUUUCAUGGCTT against Skida1, the z-score is inactive: 0.398.

As to GGCCGAGAGUAUUUCUACATT against Efna5, the z-score is inactive: -0.254.

For GGCUGUUGAACAGGUUAUCTT against Mis12, the z-score was inactive: 0.645.

With GGGUUCUGGUGGCUAAGUUTT against Fam189a1, the z-score is inactive: -0.0493.

CCUUGACCCAGAUUGAGAATT against Xkr6: the z-score is inactive: 0.363.

In the case of GGAAGAAGGCAGUGCUGAUTT against Ap3d1, the z-score was inactive: -0.317.

With CCCAAAAUUAUGGAAGCCATT against Scgb2b20, the z-score was inactive: -1.65.

On to GGAGAGAUGUCCACAGCCUTT against Smarcal1, for which the z-score was inactive: -1.89.

Consider GGAAAAUGAAGGUUCAGAATT against Pkib, for which the z-score was inactive: -0.185.
